# The list does not hold the whole screen: it gathers tests that were run many times, whatever their T/C, doses with no T/C, and many T/C values between a quarter and a half above the control. Other doses and runs of a compound stand elsewhere. T/C is the treated group as % of the vehicle group. Some doses have a count of surviving animals in place of a T/C: the source holds a T/C of zero for them, seemingly a mark for toxic or unscored doses. Some doses without a T/C left all or most animals alive at the check, yet need not have been tolerated: the source hardly ever lists a survival T/C far under the control, and the zero likely stands for such cases as well. Survivors were counted at the toxicity check, usually on the fifth day, unless a day is given; later deaths do not show. Schedule codes are those of the source, read here as Q, the interval in days (D) or hours (H), X, the number of doses. Some entries were tested several times; the values are given in rising order. Where survival is the endpoint, the PubChem record calls one and a half times the control and up active, and a quarter to a half above the control has no call in these data; cut-offs in other NCI protocols can differ.
# Tested on: L1210 leukemia ip in BDF1 mice, survival T/C
# Experiment: NCI In Vivo Anticancer Drug Screen. Data for tumor model L1210 Leukemia (intraperitoneal) in B6D2F1 (BDF1) mice
# Settings: T/C endpoint: mean survival time, higher T/C = longer survival
# [1] = dose: 400.0 mg/kg/injection, schedule: Q01DX009 (ip), vehicle: saline with Tween-80
# [2] = dose: 200.0 mg/kg/injection, schedule: Q04DX003 (ip), vehicle: saline with Tween-80
# [3] = dose: 400.0 mg/kg/injection, schedule: Q04DX003 (ip), vehicle: saline with Tween-80
# [4] = dose: 100.0 mg/kg/injection, schedule: Q01DX009 (ip), vehicle: saline with Tween-80
# [5] = dose: 200.0 mg/kg/injection, schedule: Q01DX009 (ip), vehicle: saline with Tween-80
# [6] = dose: 8.0 mg/kg/injection, schedule: Q01DX015 (ip), vehicle: carboxymethylcellulose (CMC)
structure (smiles),measurement,setting,value
Cc1c2ccccc2c(CSC(=N)N)c2ccccc12,T/C,"dose: 8.0 mg/kg/injection, schedule: Q01DX009 (ip), vehicle: saline",134 % of control
same,T/C,"dose: 12.5 mg/kg/injection, schedule: Q01DX009 (ip), vehicle: saline",127 % of control
same,survivor count,"dose: 18.75 mg/kg/injection, schedule: Q01DX009 (ip), vehicle: saline",5 of 6
same,survivor count,"dose: 50.0 mg/kg/injection, schedule: Q04DX003 (ip), vehicle: saline",4 of 6
same,survivor count,"dose: 100.0 mg/kg/injection, schedule: Q04DX003 (ip), vehicle: saline",1 of 6 and 8 of 8
same,survivor count,"dose: 200.0 mg/kg/injection, schedule: Q04DX003 (ip), vehicle: saline",1 of 8
same,survivor count,"dose: 400.0 mg/kg/injection, schedule: Q04DX003 (ip), vehicle: saline",0 of 8
CCc1nc2ccc(N=Cc3ccc(N(CCCl)CCCl)c(OC)c3)cc2[nH]1,survivor count,"dose: 100.0 mg/kg/injection, schedule: Q04DX002 (ip), vehicle: saline",0 of 3
same,survivor count,"dose: 200.0 mg/kg/injection, schedule: Q04DX002 (ip), vehicle: saline",0 of 3
same,survivor count,"dose: 400.0 mg/kg/injection, schedule: Q04DX002 (ip), vehicle: saline",0 of 3
Nc1nc(N)c2cc(CNc3ccc(C(=O)NC(C(=O)O)C(=O)O)cc3)ccc2n1,T/C,"dose: 0.12 mg/kg/injection, schedule: Q01DX001 (ip), vehicle: saline",125 % of control
same,T/C,"dose: 0.12 mg/kg/injection, schedule: Q01DX015 (ip), vehicle: carboxymethylcellulose (CMC)",125 % of control
same,T/C,"dose: 0.25 mg/kg/injection, schedule: Q01DX001 (ip), vehicle: saline",148 % of control
same,T/C,"dose: 0.5 mg/kg/injection, schedule: Q01DX001 (ip), vehicle: saline",130 % of control
same,survivor count,"dose: 0.5 mg/kg/injection, schedule: Q01DX015 (ip), vehicle: carboxymethylcellulose (CMC)",6 of 6
same,T/C,"dose: 3.3 mg/kg/injection, schedule: Q01DX001 (ip), vehicle: carboxymethylcellulose (CMC)",134 % of control
same,T/C,"dose: 7.5 mg/kg/injection, schedule: Q01DX001 (ip), vehicle: carboxymethylcellulose (CMC)",141 % of control
same,T/C,"dose: 10.0 mg/kg/injection, schedule: Q01DX001 (ip), vehicle: carboxymethylcellulose (CMC)",126 % of control
same,survivor count,"dose: 40.0 mg/kg/injection, schedule: Q01DX001 (ip), vehicle: carboxymethylcellulose (CMC)",4 of 4
same,survivor count,"dose: 80.0 mg/kg/injection, schedule: Q01DX001 (ip), vehicle: carboxymethylcellulose (CMC)",4 of 4
same,survivor count,"dose: 100.0 mg/kg/injection, schedule: Q01DX001 (ip), vehicle: carboxymethylcellulose (CMC)",3 of 4
same,survivor count,"dose: 200.0 mg/kg/injection, schedule: Q01DX001 (ip), vehicle: carboxymethylcellulose (CMC)",2 of 4
same,survivor count,"dose: 400.0 mg/kg/injection, schedule: Q01DX001 (ip), vehicle: carboxymethylcellulose (CMC)",3 of 4
CCCC(C(=O)O)C(CCC)C(=O)O (centres undefined),survivor count,[1],6 of 6
CCCCCOS(=O)(=O)c1ccc(Cl)c([N+](=O)[O-])c1,survivor count,"dose: 100.0 mg/kg/injection, schedule: Q04DX003 (ip), vehicle: saline with Tween-80",3 of 6
O=C(O)c1ccc2c(c1)C(=O)c1ccccc1C2=O,survivor count,"dose: 400.0 mg/kg/injection, schedule: Q04DX002 (ip), vehicle: saline with Tween-80",0 of 3
C[N+](C)(CC(=O)Nc1ccc(Cl)c(Cl)c1)CC(=O)c1ccc(Cl)cc1,survivor count,[2],6 of 6
same,survivor count,[3],4 of 6
CC[CH2][Sn]([CH2]CC)([CH2]CC)[O]C(=O)C(Cl)(Cl)Cl,survivor count,"dose: 6.25 mg/kg/injection, schedule: Q01DX009 (ip), vehicle: saline with Tween-80",0 of 3
same,survivor count,"dose: 12.5 mg/kg/injection, schedule: Q01DX009 (ip), vehicle: saline with Tween-80",0 of 3
same,survivor count,"dose: 25.0 mg/kg/injection, schedule: Q01DX009 (ip), vehicle: saline with Tween-80",0 of 3 and 0 of 6
same,survivor count,"dose: 50.0 mg/kg/injection, schedule: Q01DX009 (ip), vehicle: saline with Tween-80",0 of 6
same,survivor count,[4],0 of 6
same,survivor count,[5],0 of 6
same,survivor count,[1],0 of 6
CC(=O)[O][Pb]([c]1ccccc1)([c]1ccccc1)[c]1ccccc1,survivor count,"dose: 0.25 mg/kg/injection, schedule: Q01DX015 (ip), vehicle: carboxymethylcellulose (CMC)",6 of 6
same,survivor count,[6],3 of 6
CC1=C(C)CC(C(Cl)(Cl)Cl)C([N+](=O)[O-])C1 (centres undefined),survivor count,[5],3 of 6
same,survivor count,[1],0 of 6
CS(=O)(=O)OCCN(Cc1ccc(OS(C)(=O)=O)cc1)S(C)(=O)=O,survivor count,[1],5 of 6
N#CCN(CC#N)CCCN(CC#N)CCCN(CC#N)CC#N,survivor count,"dose: 100.0 mg/kg/injection, schedule: Q01DX001 (ip), vehicle: saline with Tween-80",1 of 3
same,survivor count,"dose: 200.0 mg/kg/injection, schedule: Q01DX001 (ip), vehicle: saline with Tween-80",0 of 3
same,survivor count,"dose: 400.0 mg/kg/injection, schedule: Q01DX001 (ip), vehicle: saline with Tween-80",0 of 3
S=C=NCc1ccc(Cl)cc1,survivor count,"dose: 25.0 mg/kg/injection, schedule: Q01DX009 (ip), vehicle: Klucel (hydroxypropylcellulose) (HPC)",3 of 3
same,survivor count,"dose: 50.0 mg/kg/injection, schedule: Q01DX009 (ip), vehicle: Klucel (hydroxypropylcellulose) (HPC)",3 of 3
same,survivor count,"dose: 100.0 mg/kg/injection, schedule: Q01DX009 (ip), vehicle: Klucel (hydroxypropylcellulose) (HPC)",0 of 3
CC(C)(C)C(CCC(=O)O)CC(=O)O (centres undefined),survivor count,[4],6 of 6
CCCCN(C=S)CCCC,survivor count,[2],0 of 6
same,survivor count,[3],0 of 6
CCCCCCCCCCCC[n+]1cccc2ccccc21,survivor count,"dose: 0.35 mg/kg/injection, schedule: Q01DX009 (ip), vehicle: saline",6 of 6
same,survivor count,"dose: 1.4 mg/kg/injection, schedule: Q01DX009 (ip), vehicle: saline",0 of 6
same,survivor count,"dose: 2.0 mg/kg/injection, schedule: Q01DX001 (ip), vehicle: saline",2 of 6
same,survivor count,"dose: 2.09 mg/kg/injection, schedule: Q01DX009 (ip), vehicle: saline",3 of 6
same,survivor count,"dose: 2.2 mg/kg/injection, schedule: Q04DX003 (ip), vehicle: saline",0 of 6
same,survivor count,"dose: 3.18 mg/kg/injection, schedule: Q01DX009 (ip), vehicle: saline",0 of 6
same,survivor count,"dose: 3.3 mg/kg/injection, schedule: Q04DX003 (ip), vehicle: saline",3 of 6
same,survivor count,"dose: 4.0 mg/kg/injection, schedule: Q01DX015 (ip), vehicle: carboxymethylcellulose (CMC)",4 of 6
same,survivor count,"dose: 4.77 mg/kg/injection, schedule: Q01DX009 (ip), vehicle: saline",2 of 6
same,survivor count,[6],3 of 6
CC(O)C(NC(=O)OCc1ccccc1)C(=O)NC(CO)C(=O)NN (centres undefined),survivor count,"dose: 200.0 mg/kg/injection, schedule: Q01DX001 (ip), vehicle: saline",1 of 4
same,survivor count,"dose: 400.0 mg/kg/injection, schedule: Q01DX001 (ip), vehicle: saline",0 of 6 and 1 of 4
CCCCCCCCCCCC(=O)[O][Hg][c]1ccccc1,survivor count,"dose: 150.0 mg/kg/injection, schedule: Q01DX001 (ip), vehicle: other",0 of 6
same,survivor count,"dose: 300.0 mg/kg/injection, schedule: Q01DX001 (ip), vehicle: other",0 of 6
Brc1ccc(C2=CSC3=NCCN23)cc1,survivor count,"dose: 100.0 mg/kg/injection, schedule: Q04DX003 (ip), vehicle: Klucel (hydroxypropylcellulose) (HPC)",0 of 6 and 2 of 6
same,survivor count,"dose: 200.0 mg/kg/injection, schedule: Q04DX003 (ip), vehicle: Klucel (hydroxypropylcellulose) (HPC)",0 of 6
same,survivor count,"dose: 400.0 mg/kg/injection, schedule: Q04DX003 (ip), vehicle: Klucel (hydroxypropylcellulose) (HPC)",0 of 6
CCOC(=O)C(C#N)C(C(C)=O)C(=O)OCC (centres undefined),survivor count,"dose: 200.0 mg/kg/injection, schedule: Q04DX003 (ip), vehicle: saline sonified",3 of 6
same,survivor count,"dose: 400.0 mg/kg/injection, schedule: Q04DX003 (ip), vehicle: saline sonified",4 of 6
CCC(=CCC1=C(O)c2ccccc2C(=O)C1=O)CC,survivor count,"dose: 400.0 mg/kg/injection, schedule: Q01DX001 (ip), vehicle: water",0 of 6
